How the values were obtained:
Assay type in all cases: cell-based
[1] = system: living MCF-7 cells; assay: Epifluorescence microscopy of living cells, photo-induced cytoplasm to nucleus re-localization; conditions: 2 µM pre-incubated with living MCF-7 cells for 2 h
[2] = system: HeLa cells; assay: Epifluorescence and confocal imaging of fixed cells treated with TPA (cellular localization); conditions: 2 µM for 2 hours, HeLa cells fixed using formaldehyde
[3] = system: living HeLa cells; assay: Epifluorescence imaging of living cells under continuous illumination (re-localization, membrane blebbing); conditions: for subcellular localization at early time of observation: 2 µM, 2 hours incubation, excitation filter 450-490 nm, irradiance 1.8 W/cm^2
[4] = system: living MCF-7 cells; assay: One-photon confocal fluorescence microscopy, photo-induced nuclear translocation and membrane blebbing
Experimental: One-photon epifluorescence and confocal images were obtained using a SP2 confocal microscope (Leica MicroSystem) equipped with an incubation chamber (37°C, CO2 5%). Excitation and emission filters for epifluorescence were 450-490 nm and 515-700 nm, respectively. A continuous laser line (458 nm) was used for excitation in the confocal mode.
The photo-induced nuclear translocation and membrane blebbing were next assessed using confocal fluorescence microscopy [λexc = 458 nm; emission slit settings: 560-720nm and 530-690nm for TP2Py and TP3Bzim, respectively] under experimental conditions similar to those described in experiment 1 for epifluorescence experiments. The corresponding transmission images illustrating the concomitant membrane blebbing are shown below the confocal fluorescence images. Living MCF7 cells were incubated with 2µM TP3Bzim or TP2Py for 2 hours before observation. As shown in Fig. 5A (TP2Py) and in Fig. 5B (TP3BZim), the results obtained with confocal imaging were similar to those obtained with epifluorescence imaging (experiment 1), with however, some discrepancies in the time courses of event appearance, most likely due to the power of the excitation source which is different between epifluorescence and confocal experiments (see below). […] Based on both criteria (re-localization of the fluorescence signal and the formation of blebs), the deduced fluences were 22 and 40 J/cm^2 for TP2Py and TP3Bzim, respectively. […]
The TP2Py compound at a concentration of 2 µM was first incubated with living MCF-7 cells for 2 hours and then observed with confocal microscope with varying illumination power of the laser source [λ=458 nm; emission slit setting: 560-720 nm]. […] For each condition, the fluorescence intensity in ROIs corresponding to the nucleus was plotted as a function of time (the initial time value, t = 0, represents the first observation) (FIG.7C). Using integration time based on tmax values, light dose values, determined from experiments performed at irradiance of 5.6 or 30 mW/cm^2, were consistent (27.6 and 27 J/cm^2 respectively). These values are in accordance with the above-mentioned value for TP2Py (fluence, 22 J/cm^2 in Fig. 5).
Living MCF-7 cells were treated with varying concentrations of TP2Py for two hours (2µM; 0.2µM and 0.02µM) and observed with a confocal microscope [λexc = 458nm; irradiance 30mW/cm^2, emission slit setting: 560-720nm.] (FIG 8A: 2µM; FIG 8B: 0.2µM; FIGBC: 0.02µM).

[5] = system: PARP (poly-ADP ribose polymerase) cleavage in HeLa cells; assay: PARP cleavage by Western blot and cell morphology after illumination; conditions: 2 µM
Experimental: HeLa cells were plated in 6-well plates (4.10^5 cells/well) and incubated with 2 µM TP2Py for 2h at 37°C. After varying illumination times (up to 90min) at 17 mW.cm^-2 (Mercury lamp (130W; 380-600nm) + excitation filter centered at 452 nm (± 45 nm)), cells were collected by scraping, washed once in ice-cold PBS, treated with lysis buffer (1% Nonidet P-40, 20 mM Tris pH 8.0, 137 mM NaCl, 10% glycerol (v/v)) supplemented with 1 mM phenyl-methylsulfonyl fluoride, 1 mM sodium orthovanadate and anti-protease cocktail (Complete, Boehringer Mannheim, Germany) for 20 min on ice and further centrifuged at 10000g for 10 min. Protein concentrations were determined using the bicinchoninic acid method (micro BCA, Pierce, USA). 40µg of detergent soluble proteins were separated by SDS-PAGE under reducing conditions followed by Western blotting. Membranes were first incubated overnight at 4°C with the rabbit primary polyclonal antibody anti-PARP (Cell Signaling Technology). Membranes were then probed with horseradish peroxidase-labelled anti-rabbit IgG (dilution, 1/2000) (Dakocytomation). Detection was based on a chemiluminescence detection system (GE Healthcare, Orsay, France). The immunodetection of beta-actin (supposed to be constant regarding its concentration, regardless of the experimental condition) was used as an internal loading control.
The cleavage of PARP, a hallmark of apoptosis, was assessed by Western blot using an anti-PARP antibody that recognizes both the entire and cleaved PARP (Fig. 11).

Compound: Cn1c(/C=C/c2ccc(N(c3ccccc3)c3ccc(/C=C/c4n(C)c5ccccc5[n+]4C)cc3)cc2)[n+](C)c2ccccc21 [Tp2Bzim]
- effect of initial illumination under epifluorescence microscopy [1]: cytoplasm -> nucleus re-localization

Compound: C[n+]1ccccc1/C=C/c1ccc(N(c2ccccc2)c2ccc(/C=C/c3cccc[n+]3C)cc2)cc1 [Tp2Pyo]
- effect of initial illumination under epifluorescence microscopy [1]: cytoplasm -> nucleus re-localization

Compound: Cn1c(/C=C/c2ccc(N(c3ccc(/C=C/c4n(C)c5ccccc5[n+]4C)cc3)c3ccc(/C=C/c4n(C)c5ccccc5[n+]4C)cc3)cc2)[n+](C)c2ccccc21 [TP3Bzim]
- localization of the TPA compound in fixed cells [2]: nuclear localization
- subcellular localization at early time of observation ([3]; living HeLa cells): mainly cytoplasmic
- emission spectrum, nuclear versus cytoplasmic localization ([4]; data not shown): remained the same

Compound: C(=C\c1nc2ccccc2[nH]1)/c1ccc(N(c2ccc(/C=C/c3nc4ccccc4[nH]3)cc2)c2ccc(/C=C/c3nc4ccccc4[nH]3)cc2)cc1 [TP3^NBzim, reference compound]
- localization of the neutral TPA derivative ([4]; 2 µM, two hours, λexc 458nm, even in early observation): mainly localized in nuclei
- membrane blebbing / morphological changes under light illumination ([4]; 2 µM, two hours, λexc 458nm, t = 0 to 30 min, data not shown): no membrane blebbing or morphological changes

Compound: C[n+]1ccc(/C=C/c2ccc(N(c3ccccc3)c3ccc(/C=C/c4cc[n+](C)cc4)cc3)cc2)cc1 [TP2Py]
- localization of the TPA compound in fixed cells [2]: nuclear localization
- subcellular localization at early time of observation ([3]; living HeLa cells): mainly cytoplasmic
- fluorescence signal 15 min after the beginning of irradiation ([3]; cells pre-incubated for 16 hours, continuous illumination, irradiance 1.8W/cm^2): photo-induced re-localization
- initial localization after 16-hour incubation ([3]; living HeLa cells, before illumination): mitochondrial localization
- maximum of emission in mitochondria ([4]; living MCF7 cells, confocal): 594 nm
- maximum of emission in nuclei ([4]; living MCF7 cells, confocal): 624 nm
- cell morphology after 15 min illumination [5]: a few cells were detached
- cell morphology after 90 min illumination [5]: all cells displayed morphological alteration
- cell morphology without light illumination ([5]; 2 hour incubation): normal morphology

From patent EP2711366A1, “Cationic triphenylamine derivatives activable by visible and Infra Red light for inducing and imaging apoptosis in cancer cells” (Institut Curie, priority 2012, dated 2014)
